# At least one compound was matched to its structure with a doubt left.
# System: primary human airway smooth muscle (ASM) cells
# Test: Contractile force screening (CFS), basal ASM cell contraction (strain energy)
# Assay type: cell-based
# Settings: FIG. 10A
# Description: Primary human airway smooth muscle (ASM) cells derived from both non-asthmatic and asthmatic donors were obtained from the Gift of Hope Organ and Tissue Donor Network. These cells have been well-characterized previously (see for example H. Yoshie et al., Biophys J (2018) 114(9):2194-99). All measurements were performed using cells at passage 5-8 from three non-asthmatic donors. Cells were grown on either 10% serum-containing F12 complete media, or serum-deprived media supplemented with insulin, transferrin, and selenium (Corning, Tewksbury, Mass.). Contractile Force Screening: Human ASM cells were grown to confluence in 96-well plates on custom NuSilTM 8100 elastic substrates (Avantor, Inc., Radnor, Pa.) (R. […] Fluorescent beads (diameter 400 nm) were embedded in the substrate surface to enable traction force calculations based on their displacements. To measure fractions, an inverted epi-fluorescence microscope (DMI 6000B, Leica Inc., Germany) equipped with a heated chamber (37° C.), a monochrome camera ([…]), and a motorized stage was used. Spatial images were recorded of substrate-embedded fluorescent beads at 10× magnification. […] From each fraction map, the root-mean-squared traction (RMST) value and strain energy were calculated and reported as a measure of normal contraction in the monolayer. […]
smiles,measurement,value
CCC(C)(C)C(=O)O[C@H]1C[C@@H](C)C=C2C=C[C@H](C)[C@H](CC[C@@H]3C[C@@H](O)CC(=O)O3)[C@H]21 [simvastatin],ASM contraction / ASM cell relaxation,inhibited ASM contraction
